Measurements reported in PubChem BioAssay AID686943 (Drosophila RNAi Screening Center, 2013)
Purpose: 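Search across the genome for regulators of signalling from receptor tyrosine kinase to ERK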 (primary screen). Cells: Drosophila S2R+ haemocyte-like cells expressing YFP-tagged ERK (Rolled). Reagent: long dsRNA against Drosophila genes. Challenge: insulin stimulation versus unstimulated cells; dose and duration not given. Detection: 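Antibody staining for doubly phosphorylated ERK divided by ERK-YFP signal, as plate z-scores, in insulin-treated and untreated cells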. Reading the numbers: replicate 1, z-score of dpERK with insulin and replicate 2, z-score of dpERK with insulin: higher = more active ERK per ERK-YFP after insulin; replicate 1, z-score of dpERK under basal conditions: higher = more basal active ERK per ERK-YFP; replicate 1, z-score of ERK-YFP with insulin: higher = more YFP-tagged ERK signal.
The deposit covers about 23,000 reagents; shown is an unselected part of those that have a named target and a result. 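Extra replicates exist only for a retested subset of genes; insulin dose and duration not given; both raised and lowered dpERK matter.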 Names joined by + are all predicted targets of the reagent. Reagent sequences are not shown. Not stated in the record: the amount of reagent, the time to read-out.

gene knocked down,dsRNA,"replicate 1, z-score of dpERK with insulin","replicate 2, z-score of dpERK with insulin","replicate 1, z-score of dpERK under basal conditions","replicate 1, z-score of ERK-YFP with insulin"
Fkbp39,DRSC16667,0.95,0.63,2.53,-2.69
CG9777,DRSC20208,0.1,0.47,0.83,0.22
PDZ-GEF,DRSC03231,-1.53,0.47,-1.37,-0.72
CG17287,DRSC06659,-0.72,-0.07,0.34,0.06
Aef1,DRSC11605,-0.07,0.11,0.09,-0.5
BigH1,DRSC15491,-0.2,0.32,0.8,0.3
CR31822,DRSC01510,0.03,0.38,0.66,0.32
CG14610 + asRNA:CR42738,DRSC12554,-0.45,0.21,-0.66,0.28
Cdc50,DRSC20224,-0.2,0.33,-0.84,0.25
CG13272,DRSC02249,0.16,-0.13,0.19,-0.14
CG13272,DRSC22910,0.44,-0.31,0.18,-0.28
nan,DRSC10551,-0.26,-0.59,0.46,0.19
His2Av,DRSC16702,0.62,0.47,-1.02,1.24
CG7691,DRSC16287,0.48,-0.52,-0.1,-0.06
Mpp6,DRSC03169,-0.17,0.85,-1.24,-0.19
CG9344,DRSC04541,1.64,0.19,-0.54,0.13
CG4375,DRSC00653,0.36,-0.39,0.88,-0.99
Cyp305a1,DRSC11126,-0.33,-0.07,-0.39,0.48
RpL14,DRSC11269,1.08,-3.02,,-4.95
Idh3b,DRSC16040,-0.79,0.35,-1,0.22
CG18063,DRSC01968,0.17,0.46,0.78,-0.07
GluRIIC,DRSC00642,0.63,0.91,-0.41,-0.56
Sugb,DRSC10815,-0.15,0.02,0.45,-0.14
CG8065,DRSC10959,0.74,0.45,-0.17,-0.34
RpL26,DRSC10726,-3.59,0,-0.02,-4.43
CG14400,DRSC02384,0.22,0.08,2.31,-0.51
Gem2,DRSC09721,0.01,-0.07,0.78,-0.89
CG31189,DRSC16198,-0.32,-0.96,-0.47,-0.53
Gos28,DRSC16292,0.94,0.61,0.7,-0.2
Gos28,DRSC22859,0.82,0.44,0.47,-1.19
CG9776,DRSC12127,-0.13,0.46,-0.07,0.26
LS2,DRSC04340,-1.89,-1.79,-1.37,1.8
CG2938,DRSC18243,0.23,0.79,-1.05,0.57
CG32260,DRSC08084,-0.13,-0.21,-0.47,0.77
CG8997,DRSC01900,-0.5,-0.1,0.29,-0.16
CG42272,DRSC08766,-0.04,0.03,0.33,0.41
CG42272,DRSC22502,-2.12,-2.52,-1.98,-0.12
Neb-cGP,DRSC17991,0.1,-0.72,1.84,0.42
Ist1,DRSC09697,0.36,1.06,-0.98,1.63
CG11885,DRSC00329,-0.26,-0.93,0.25,0.73
capu,DRSC00208,-0.22,0.02,-0.16,0.32
capu,DRSC00209,-3.61,-4.58,-1.19,1.92
capu,DRSC00434,0.69,0.76,-0.35,-0.07
capu,DRSC00807,0.47,-0.15,-0.07,0.22
CG6435,DRSC06987,-0.4,1.55,-0.29,0.85
CG2258,DRSC18222,-1.13,-0.16,-0.32,0.79
cort,DRSC02148,-0.61,0.3,-0.69,-0.14
CR16735,DRSC15144,-0.76,-0.4,1.44,0.98
Sdr,DRSC15517,-0.19,0.38,-0.82,2.22
CG44325,DRSC18039,0.52,0.04,1.63,-0.61
CG44325,DRSC18423,-0.25,0.02,-0.42,-0.12
IntS10,DRSC08173,0.27,-0.02,1.25,-0.04
CG15073,DRSC06506,1.07,0.45,0.16,0.54
CG13198,DRSC06323,0.67,-0.18,0.06,-0.18
NtR,DRSC04628,-0.74,0.3,-0.14,0.3
CG40198,DRSC21068,-0.76,-0.01,0.95,0.1
CG6553,DRSC07002,0.16,0.32,0.18,0.93

In a second layout: 7 of the entries above
Gos28 [DRSC16292] | replicate 1, z-score of dpERK with insulin: 0.94; replicate 2, z-score of dpERK with insulin: 0.61; replicate 1, z-score of dpERK under basal conditions: 0.7; replicate 1, z-score of ERK-YFP with insulin: -0.2
Gos28 [DRSC22859] | replicate 1, z-score of dpERK with insulin: 0.82; replicate 2, z-score of dpERK with insulin: 0.44; replicate 1, z-score of dpERK under basal conditions: 0.47; replicate 1, z-score of ERK-YFP with insulin: -1.19
CG9776 [DRSC12127] | replicate 1, z-score of dpERK with insulin: -0.13; replicate 2, z-score of dpERK with insulin: 0.46; replicate 1, z-score of dpERK under basal conditions: -0.07; replicate 1, z-score of ERK-YFP with insulin: 0.26
LS2 [DRSC04340] | replicate 1, z-score of dpERK with insulin: -1.89; replicate 2, z-score of dpERK with insulin: -1.79; replicate 1, z-score of dpERK under basal conditions: -1.37; replicate 1, z-score of ERK-YFP with insulin: 1.8
CG2938 [DRSC18243] | replicate 1, z-score of dpERK with insulin: 0.23; replicate 2, z-score of dpERK with insulin: 0.79; replicate 1, z-score of dpERK under basal conditions: -1.05; replicate 1, z-score of ERK-YFP with insulin: 0.57
CG32260 [DRSC08084] | replicate 1, z-score of dpERK with insulin: -0.13; replicate 2, z-score of dpERK with insulin: -0.21; replicate 1, z-score of dpERK under basal conditions: -0.47; replicate 1, z-score of ERK-YFP with insulin: 0.77
CG8997 [DRSC01900] | replicate 1, z-score of dpERK with insulin: -0.5; replicate 2, z-score of dpERK with insulin: -0.1; replicate 1, z-score of dpERK under basal conditions: 0.29; replicate 1, z-score of ERK-YFP with insulin: -0.16
